Source: article PMC13586520
No constants are given. Whether binding was seen depends on the method and setting. In cells and extracts the contact can be indirect. A yes stands for co-enrichment or nearness to the bait. Other partners may have been found. For some of these results: A no says only that the protein was not detected with the bait.

By UniProt entry, the sequences of proteins in these tests, tags left out. Residues count along the entry.
UniProt P08238: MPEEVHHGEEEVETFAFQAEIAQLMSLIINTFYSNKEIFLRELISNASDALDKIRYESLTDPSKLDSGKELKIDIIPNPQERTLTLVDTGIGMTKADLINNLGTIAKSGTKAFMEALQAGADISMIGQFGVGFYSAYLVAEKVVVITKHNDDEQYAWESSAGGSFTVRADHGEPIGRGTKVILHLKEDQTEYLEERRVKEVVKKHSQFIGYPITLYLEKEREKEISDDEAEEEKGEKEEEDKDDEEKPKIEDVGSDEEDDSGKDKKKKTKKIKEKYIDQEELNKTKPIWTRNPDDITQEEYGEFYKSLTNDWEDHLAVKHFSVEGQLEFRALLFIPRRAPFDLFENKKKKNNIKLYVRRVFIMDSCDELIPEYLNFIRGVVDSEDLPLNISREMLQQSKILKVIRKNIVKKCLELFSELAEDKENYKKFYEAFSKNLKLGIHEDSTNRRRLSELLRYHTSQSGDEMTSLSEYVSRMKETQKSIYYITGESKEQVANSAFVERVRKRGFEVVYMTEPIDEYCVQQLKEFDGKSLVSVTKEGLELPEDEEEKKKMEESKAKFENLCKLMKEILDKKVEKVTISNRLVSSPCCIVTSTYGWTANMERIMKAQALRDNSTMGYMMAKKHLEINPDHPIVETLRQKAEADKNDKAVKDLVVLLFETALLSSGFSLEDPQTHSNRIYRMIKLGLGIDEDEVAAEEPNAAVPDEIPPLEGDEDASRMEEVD
UniProt Q02127: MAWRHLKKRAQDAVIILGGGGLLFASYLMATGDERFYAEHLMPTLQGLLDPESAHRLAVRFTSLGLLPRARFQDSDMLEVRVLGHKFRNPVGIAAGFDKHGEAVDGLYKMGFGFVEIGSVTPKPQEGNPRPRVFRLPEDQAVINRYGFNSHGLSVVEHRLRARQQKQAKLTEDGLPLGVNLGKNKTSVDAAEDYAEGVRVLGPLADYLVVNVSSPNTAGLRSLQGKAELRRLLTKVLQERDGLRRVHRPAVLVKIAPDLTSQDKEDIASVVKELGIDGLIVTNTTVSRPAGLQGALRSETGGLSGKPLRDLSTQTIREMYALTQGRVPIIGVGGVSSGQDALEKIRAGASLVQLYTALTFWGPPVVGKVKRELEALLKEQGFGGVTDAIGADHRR
UniProt P40939, residues 37-763: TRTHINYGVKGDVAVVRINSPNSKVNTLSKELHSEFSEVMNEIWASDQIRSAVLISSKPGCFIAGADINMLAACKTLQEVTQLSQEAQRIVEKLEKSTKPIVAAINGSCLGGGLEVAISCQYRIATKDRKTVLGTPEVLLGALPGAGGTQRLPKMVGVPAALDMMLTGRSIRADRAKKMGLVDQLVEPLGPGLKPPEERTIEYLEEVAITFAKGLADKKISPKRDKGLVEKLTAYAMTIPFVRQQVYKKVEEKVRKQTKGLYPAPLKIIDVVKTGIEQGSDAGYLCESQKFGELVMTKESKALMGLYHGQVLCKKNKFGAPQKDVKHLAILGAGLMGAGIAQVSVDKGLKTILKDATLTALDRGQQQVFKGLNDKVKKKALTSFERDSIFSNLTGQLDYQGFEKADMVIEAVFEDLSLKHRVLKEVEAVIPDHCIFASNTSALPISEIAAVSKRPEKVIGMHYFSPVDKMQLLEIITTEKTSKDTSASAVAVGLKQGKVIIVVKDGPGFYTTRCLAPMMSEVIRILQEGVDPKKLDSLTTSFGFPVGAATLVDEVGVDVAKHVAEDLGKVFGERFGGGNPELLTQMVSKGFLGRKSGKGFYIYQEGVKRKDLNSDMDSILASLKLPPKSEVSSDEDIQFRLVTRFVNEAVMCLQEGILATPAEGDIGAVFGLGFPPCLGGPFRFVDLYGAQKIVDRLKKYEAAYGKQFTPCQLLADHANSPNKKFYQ

T1: tumor necrosis factor receptor-associated protein 1 (TRAP1) (human (endogenous in HEK293)) (UniProt Q12931)
T1 sequence: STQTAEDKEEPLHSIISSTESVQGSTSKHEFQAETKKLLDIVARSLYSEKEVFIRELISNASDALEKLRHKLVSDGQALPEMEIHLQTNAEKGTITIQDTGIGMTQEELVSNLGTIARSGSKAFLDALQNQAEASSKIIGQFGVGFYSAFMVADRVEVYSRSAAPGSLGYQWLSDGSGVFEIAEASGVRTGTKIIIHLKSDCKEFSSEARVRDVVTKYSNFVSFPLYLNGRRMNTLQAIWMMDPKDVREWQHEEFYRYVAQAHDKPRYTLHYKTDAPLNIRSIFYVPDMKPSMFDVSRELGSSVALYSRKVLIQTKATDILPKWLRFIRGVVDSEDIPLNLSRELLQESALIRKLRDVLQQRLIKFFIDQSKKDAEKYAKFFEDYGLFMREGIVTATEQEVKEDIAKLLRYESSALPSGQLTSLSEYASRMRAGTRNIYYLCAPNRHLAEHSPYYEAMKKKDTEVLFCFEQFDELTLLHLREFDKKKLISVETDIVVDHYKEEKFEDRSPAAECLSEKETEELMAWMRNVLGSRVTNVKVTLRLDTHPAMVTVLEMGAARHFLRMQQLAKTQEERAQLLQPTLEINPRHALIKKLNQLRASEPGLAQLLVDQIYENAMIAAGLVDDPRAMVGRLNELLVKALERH


How the values were obtained:
[1] = molecular target: Hsp90α (human (endogenous in HEK293)) (UniProt P07900); assay: affinity purification with mass spectrometry; endogenous Hsp90α or Hsp90β immunoprecipitated from mitochondria of WT and TRAP1 KO HEK293 cells, interactors compared; IgG IP as negative control; n = 3 biological replicates
[2] = molecular target: Hsp90α (human (endogenous in HEK293)) (UniProt P07900); assay: affinity purification with mass spectrometry; endogenous Hsp90α or Hsp90β immunoprecipitated (antibody overnight at 4 °C, Protein G agarose) from mitochondria of WT HEK293 cells; IgG IP as negative control; only MitoCarta 3.0 proteins analysed; n = 2 biological replicates; no protease treatment of mitochondria
[3] = molecular target: Hsp90β (human (endogenous in HEK293)) (UniProt P08238); assay: as above
[4] = molecular target: T1, tumor necrosis factor receptor-associated protein 1 (TRAP1) (human (endogenous in HEK293)); assay: affinity purification with mass spectrometry; endogenous TRAP1 immunoprecipitated from WT, Hsp90α KO and Hsp90β KO HEK293 cells, interactors compared; IgG IP as negative control

| Molecule | binding [1] | binding [2] | binding [3] | binding [4] |
| --- | --- | --- | --- | --- |
| DHODH (from UniProt Q02127 1-395) (enzyme) | binds | – | – | – |
| NDUFB1 (from UniProt O75438 1-58) | – | no binding | binds | – |
| NDUFA7 (from UniProt O95182 1-113) | – | no binding | binds | – |
| hydroxyacyl-CoA dehydrogenase, α-subunit (HADHA) (from UniProt P40939 37-763) | – | binds | binds | – |
| ATP5IF1 (protein, UniProt Q9UII2 26-106) GSDQSENVDRGAGSIREAGGAFGKREQAEEERYFRAQSREQLAALKKHHEEEIVHHKKEIERLQKEIERHKQKIKMLKHDD | – | no binding | binds | – |
| COQ7 (protein, UniProt Q99807 36-217) SSGMTLDNISRAAVDRIIRVDHAGEYGANRIYAGQMAVLGRTSVGPVIQKMWDQEKDHLKKFNELMVTFRVRPTVLMPLWNVLGFALGAGTALLGKEGAMACTVAVEESIAHHYNNQIRTLMEEDPEKYEELLQLIKKFRDEELEHHDIGLDHDAELAPAYAVLKSIIQAGCRVAIYLSERL | – | no binding | binds | – |
| GOT2, the mitochondrial isoform of glutamic-oxaloacetic transaminase (enzyme, UniProt P00505 30-430) SSWWTHVEMGPPDPILGVTEAFKRDTNSKKMNLGVGAYRDDNGKPYVLPSVRKAEAQIAAKNLDKEYLPIGGLAEFCKASAELALGENSEVLKSGRFVTVQTISGTGALRIGASFLQRFFKFSRDVFLPKPTWGNHTPIFRDAGMQLQGYRYYDPKTCGFDFTGAVEDISKIPEQSVLLLHACAHNPTGVDPRPEQWKEIATVVKKRNLFAFFDMAYQGFASGDGDKDAWAVRHFIEQGINVCLCQSYAKNMGLYGERVGAFTMVCKDADEAKRVESQLKILIRPMYSNPPLNGARIAAAILNTPDLRKQWLQEVKVMADRIIGMRTQLVSNLKKEGSTHNWQHITDQIGMFCFTGLKPEQVERLIKEFSIYMTKDGRISVAGVTSSNVGYLAHAIHQVTK | – | – | – | binds |
| NDUFAF5 (protein, UniProt Q5TEU4 37-345) GSTSPRTLNIFDRDLKRKQKNWAARQPEPTKFDYLKEEVGSRIADRVYDIPRNFPLALDLGCGRGYIAQYLNKETIGKFFQADIAENALKNSSETEIPTVSVLADEEFLPFKENTFDLVVSSLSLHWVNDLPRALEQIHYILKPDGVFIGAMFGGDTLYELRCSLQLAETEREGGFSPHISPFTAVNDLGHLLGRAGFNTLTVDTDEIQVNYPGMFELMEDLQGMGESNCAWNRKALLHRDTMLAAAAVYREMYRNEDGSVPATYQIYYMIGWKYHESQARPAERGSATVSFGELGKINNLMPPGKKSQ | – | no binding | binds | – |
| SDHD (protein, UniProt O14521 57-159) SGSKAASLHWTSERVVSVLLLGLLPAAYLNPCSAMDYSLAAALTLHGHWGLGQVVTDYVHGDALQKAAKAGLLALSALTFAGLCYFNYHDVGICKAVAMLWKL | – | no binding | binds | – |
| LYRM7 (protein, UniProt Q5U5X0 1-104) MGRAVKVLQLFKTLHRTRQQVFKNDARALEAARIKINEEFKNNKSETSSKKIEELMKIGSDVELLLRTSVIQGIHTDHNTLKLVPRKDLLVENVPYCDAPTQKQ | – | no binding | binds | – |
| COX20 (protein, UniProt Q5RI15 1-118) MAAPPEPGEPEERKSLKLLGFLDVENTPCARHSILYGSLGSVVAGFGHFLFTSRIRRSCDVGVGGFILVTLGCWFHCRYNYAKQRIQERIAREEIKKKILYEGTHLDPERKHNGSSSN | – | no binding | binds | – |
| aldehyde dehydrogenase 1A1 (ALDH1A1) (enzyme, UniProt P00352 1-501) MSSSGTPDLPVLLTDLKIQYTKIFINNEWHDSVSGKKFPVFNPATEEELCQVEEGDKEDVDKAVKAARQAFQIGSPWRTMDASERGRLLYKLADLIERDRLLLATMESMNGGKLYSNAYLNDLAGCIKTLRYCAGWADKIQGRTIPIDGNFFTYTRHEPIGVCGQIIPWNFPLVMLIWKIGPALSCGNTVVVKPAEQTPLTALHVASLIKEAGFPPGVVNIVPGYGPTAGAAISSHMDIDKVAFTGSTEVGKLIKEAAGKSNLKRVTLELGGKSPCIVLADADLDNAVEFAHHGVFYHQGQCCIAASRIFVEESIYDEFVRRSVERAKKYILGNPLTPGVTQGPQIDKEQYDKILDLIESGKKEGAKLECGGGPWGNKGYFVQPTVFSNVTDEMRIAKEEIFGPVQQIMKFKSLDDVIKRANNTFYGLSAGVFTKDIDKAITISSALQAGTVWVNCYGVVSAQCPFGGFKMSGNGRELGEYGFHEYTEVKTVTVKISQKNS | – | no binding | no binding | – |
